Results on 1 molecule are retold here after publication PMC3874760.

The chains behind the UniProt entries cited, without tags or fusion partners.
UniProt O14776: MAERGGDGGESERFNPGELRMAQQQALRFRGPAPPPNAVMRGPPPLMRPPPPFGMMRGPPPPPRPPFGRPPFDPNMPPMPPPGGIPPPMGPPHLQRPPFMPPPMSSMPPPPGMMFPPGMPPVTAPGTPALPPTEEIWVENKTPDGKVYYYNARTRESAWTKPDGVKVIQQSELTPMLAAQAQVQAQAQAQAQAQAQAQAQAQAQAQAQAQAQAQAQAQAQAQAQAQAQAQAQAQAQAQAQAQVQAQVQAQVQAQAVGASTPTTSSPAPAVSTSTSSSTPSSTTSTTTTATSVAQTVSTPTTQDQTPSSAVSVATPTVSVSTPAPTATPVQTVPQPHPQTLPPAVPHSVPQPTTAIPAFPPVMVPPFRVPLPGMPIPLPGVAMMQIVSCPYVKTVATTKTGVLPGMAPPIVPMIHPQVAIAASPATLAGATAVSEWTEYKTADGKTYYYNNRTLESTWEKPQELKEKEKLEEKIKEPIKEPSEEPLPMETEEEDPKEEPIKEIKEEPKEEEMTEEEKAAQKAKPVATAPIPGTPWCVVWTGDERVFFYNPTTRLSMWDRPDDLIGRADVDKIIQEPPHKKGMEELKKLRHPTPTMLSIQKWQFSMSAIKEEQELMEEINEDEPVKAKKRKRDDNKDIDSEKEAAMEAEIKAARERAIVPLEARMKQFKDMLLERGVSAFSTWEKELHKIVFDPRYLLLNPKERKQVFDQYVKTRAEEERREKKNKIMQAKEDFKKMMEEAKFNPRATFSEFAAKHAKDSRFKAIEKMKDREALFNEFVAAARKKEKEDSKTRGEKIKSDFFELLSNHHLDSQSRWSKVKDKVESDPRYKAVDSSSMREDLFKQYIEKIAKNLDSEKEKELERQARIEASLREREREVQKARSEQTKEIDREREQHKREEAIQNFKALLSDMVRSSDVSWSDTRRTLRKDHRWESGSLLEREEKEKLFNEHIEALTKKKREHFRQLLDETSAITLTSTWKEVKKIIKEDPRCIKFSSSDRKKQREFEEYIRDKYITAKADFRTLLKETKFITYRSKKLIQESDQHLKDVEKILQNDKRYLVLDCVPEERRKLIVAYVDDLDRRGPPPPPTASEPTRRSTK

No constants are given. Whether binding was seen depends on the method and setting. Some results given as binding are weak or reduced against the parent protein; the word gives no strength.

The test addresses TCERG1, bait of the tandem affinity purification (TAP) (UniProt O14776). Kind of test: tandem affinity purification (TAP); TCERG1 as bait; data not shown, no conditions told.

B1: ELL (protein, UniProt P55199 1-621)
chain: MAALKEDRSYGLSCGRVSDGSKVSVFHVKLTDSALRAFESYRARQDSVSLRPSIRFQGSQGHISIPQPDCPAEARTFSFYLSNIGRDNPQGSFDCIQQYVSSHGEVHLDCLGSIQDKITVCATDDSYQKARQSMAQAEEETRSRSAIVIKAGGRYLGKKVQFRKPAPGATDAVPSRKRATPINLASAIRKSGASAVSGGSGVSQRPFRDRVLHLLALRPYRKAELLLRLQKDGLTQADKDALDGLLQQVANMSAKDGTCTLQDCMYKDVQKDWPGYSEGDQQLLKRVLVRKLCQPQSTGSLLGDPAASSPPGERGRSASPPQKRLQPPDFIDPLANKKPRISHFTQRAQPAVNGKLGVPNGREALLPTPGPPASTDTLSSSTHLPPRLEPPRAHDPLADVSNDLGHSGRDCEHGEAAAPAPTVRLGLPLLTDCAQPSRPHGSPSRSKPKKKSKKHKDKERAAEDKPRAQLPDCAPATHATPGAPADTPGLNGTCSVSSVPTSTSETPDYLLKYAAISSSEQRQSYKNDFNAEYSEYRDLHARIERITRRFTQLDAQLRQLSQGSEEYETTRGQILQEYRKIKKTNTNYSQEKHRCEYLHSKLAHIKRLIAEYDQRQLQAWP
For B1, the binding entry is given as “binds”.
